# Experimental data taken from PMC7819943, “Rice protein-binding microarrays: a tool to detect cis-acting elements near promoter regions in rice”.
# By UniProt entry, the sequences of proteins in these tests, tags left out.
# UniProt Q0JBA9, entry or part of it: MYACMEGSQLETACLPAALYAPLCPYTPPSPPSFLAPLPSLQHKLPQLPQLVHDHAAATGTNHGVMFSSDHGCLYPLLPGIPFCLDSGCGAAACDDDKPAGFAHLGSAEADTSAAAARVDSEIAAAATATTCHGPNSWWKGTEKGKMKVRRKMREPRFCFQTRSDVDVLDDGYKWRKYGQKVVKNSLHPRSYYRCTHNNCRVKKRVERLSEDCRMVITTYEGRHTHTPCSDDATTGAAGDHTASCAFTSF
# This is one part of the list.
# Biological target: OsWRKY34 (Oryza sativa, UniProt Q0JBA9 1-250)
# Assay: protein-binding microarray (RPBM); PBS, 2% BSA, 51.3 ng/ul salmon testes DNA, 50 uM zinc acetate, 200 nM TF, 25 C, 1 h; high values mean tight binding
# Conditions: protein: recombinant; tags: N-terminal polyhistidine and DsRed monomer fusion (pET32a); label: CyDye5-dUTP incorporated in the synthesized complementary strand; 3' TTTTT single-stranded linker to array surface; dsDNA, one strand shown
# Summary of the method: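 Binding signal is defined as the fluorescence intensity of each feature in arbitrary units, read on an Axon 4000B scanner. Transcription factors with N-terminal polyhistidine and DsRed fusions came from E. coli BL21-CodonPlus and were purified on Ni–NTA. They were incubated at 200 nM for 1 h at 25 °C on a custom Agilent array that had been made double-stranded with Cy5-dUTP, with 50 µM zinc acetate present, and the array was washed.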
row,Sequence,binding signal
1,TCTTGCATTTCTATTTTTCCTACACATGTTGTCAGAAATGCGGAGTCACCTAGTGCAG,11700 fluorescence intensity (a.u.)
2,AAACTTCCAACTTTTCCGTCACATCAAACTTTCCTACACACGGAGTCACCTAGTGCAG,9580 fluorescence intensity (a.u.)
3,GATGATCTTGGACGTCTGCAGGTTACTTTCGTGAACTATACGGAGTCACCTAGTGCAG,9320 fluorescence intensity (a.u.)
4,GTCCTTCCAATCATACTACTTTTGTGTCAACCCTTTTACACGGAGTCACCTAGTGCAG,11400 fluorescence intensity (a.u.)
5,AGGTGCATGTTGTTAGTATTTTCGTTGAGTCGGAGAGAATCGGAGTCACCTAGTGCAG,8880 fluorescence intensity (a.u.)
6,ACCTTCACGTTCCTCGCCACAACAACACGTACAAAACAAACGGAGTCACCTAGTGCAG,9320 fluorescence intensity (a.u.)
7,CCTTTCGCGCTCATCTTATCCCTCTGGTTTGACATCAGATCGGAGTCACCTAGTGCAG,11700 fluorescence intensity (a.u.)
8,GTGAAGTGTGGTTTAAAAATGGTTGCCTGGTCACTTTATCCGGAGTCACCTAGTGCAG,9020 fluorescence intensity (a.u.)
9,GCGAGTGAGGAGGGGCGGCGCGCGGTGGCCGGCGGGTGAGCGGAGTCACCTAGTGCAG,8070 fluorescence intensity (a.u.)
10,CTGCCGCATGTGCCGTTTGACCGTTGAAAACGCCCTCCCCCGGAGTCACCTAGTGCAG,8780 fluorescence intensity (a.u.)
11,GGATTTTGTTGTTTTAGTGTTTTTCTTTTACAATGATGGTCGGAGTCACCTAGTGCAG,8140 fluorescence intensity (a.u.)
12,GCAGCTGATCGATCTGGTTTCTGCTTTGCTGCAACTCACTCGGAGTCACCTAGTGCAG,8870 fluorescence intensity (a.u.)
13,AGATTATTTTGCTCGATTTTGAATTTTTCATGCATCCGTCCGGAGTCACCTAGTGCAG,9150 fluorescence intensity (a.u.)
14,CCCACCTCGCCTTTCGATTGCGCGATCACCCACCTTTATACGGAGTCACCTAGTGCAG,10000 fluorescence intensity (a.u.)
15,CCTCGCCGGCCATGGTCGCCCTCCGCTCCGACGTCCTCCACGGAGTCACCTAGTGCAG,8070 fluorescence intensity (a.u.)
16,TAAATCCTGAACTTATTTTTGTTTCCTTCGTTTCAGATTACGGAGTCACCTAGTGCAG,8620 fluorescence intensity (a.u.)
17,ACGCATATCGCTTTGCTCTGCTTCGCCTTCGCTTCCGCTTCGGAGTCACCTAGTGCAG,8030 fluorescence intensity (a.u.)
18,AAATATGGTGGGCCCCACATGGCTGCGCCTCAAGCTTCTCCGGAGTCACCTAGTGCAG,9100 fluorescence intensity (a.u.)
19,TCTGGTCTCCATCTTTTAGCAATAGTACGCATAATTTATACGGAGTCACCTAGTGCAG,8500 fluorescence intensity (a.u.)
20,CACCACCACCACCACACCACGACAGACGGGCCAATCCACCCGGAGTCACCTAGTGCAG,9350 fluorescence intensity (a.u.)
21,ATTATGTCGACACATTTTCTGGGTAATCACAGTCGATTTTCGGAGTCACCTAGTGCAG,8300 fluorescence intensity (a.u.)

row,Sequence,binding signal
1,CGCTCCGCTCCATTCCATTCCATTCTCTTCTCGCCGCGTACGGAGTCACCTAGTGCAG,8790 fluorescence intensity (a.u.)
2,TTCACATTTCGGTCAGCTCGTGTCCCAACAACGTTCAACGCGGAGTCACCTAGTGCAG,8490 fluorescence intensity (a.u.)
3,GAAGAGGAGAGAGGAAGAGAGGTGGAAAGGGGAGGGGAAGCGGAGTCACCTAGTGCAG,9460 fluorescence intensity (a.u.)
4,CTTTTCCTGCTTGGTTCGTTACTCCTGTTTAATTATTATTCGGAGTCACCTAGTGCAG,14600 fluorescence intensity (a.u.)
5,GCTCTAGCCATCCGGCCCATCTAGCCCACGTCGCGTGTAACGGAGTCACCTAGTGCAG,8280 fluorescence intensity (a.u.)
6,CCCGCCCAGAGTGTTCGTCCGCGCGTGCATGTCGTTGCATCGGAGTCACCTAGTGCAG,10200 fluorescence intensity (a.u.)
7,CTGCTCTATATATATCCACTGTCTTACTTCTATGTGTGTTCGGAGTCACCTAGTGCAG,11100 fluorescence intensity (a.u.)
8,ACCACTCCGGCACGACCACTTCTTGTTTAAATTCCTCACACGGAGTCACCTAGTGCAG,11000 fluorescence intensity (a.u.)
9,ATATTTTGGTAGTTTAGTTTCATTTGGTAGTTTAGTTTCACGGAGTCACCTAGTGCAG,8330 fluorescence intensity (a.u.)
10,GGGTGTAATTTTTGTTTTACATGTACGGAATTTTTTACTCCGGAGTCACCTAGTGCAG,10800 fluorescence intensity (a.u.)
11,GGGAGGGGTGCGGCGCGGTGGCGCTGGAGCGGAGGAGCGTCGGAGTCACCTAGTGCAG,9990 fluorescence intensity (a.u.)
12,GGTCCTCGTCGCCGTCATTGTCTTGATGTCTAGCTTCTGTCGGAGTCACCTAGTGCAG,8940 fluorescence intensity (a.u.)
13,TGGTGGTCCAGTTTTTTGTTTGGTTAGGTGGATATGGCCACGGAGTCACCTAGTGCAG,8560 fluorescence intensity (a.u.)
14,TATTATTTTCATGATCTATTTACATCATTGTACTCTACATCGGAGTCACCTAGTGCAG,8400 fluorescence intensity (a.u.)
15,AGACGGAGGAGGACAAGGACATAGGGGAGGAGGGGCGAGGCGGAGTCACCTAGTGCAG,9530 fluorescence intensity (a.u.)
16,GAGGCGCTGTTCGTGGGGTCGGTGGTGTCGGTGGCGGCGCCGGAGTCACCTAGTGCAG,12000 fluorescence intensity (a.u.)
17,GCTGCTGGTAAATACACTCTTCTCTGAGCTTCCTCAAGCTCGGAGTCACCTAGTGCAG,8940 fluorescence intensity (a.u.)
18,CCGCTGAATCCATCTCCACCTCCTCACCTATTCGCTAACGCGGAGTCACCTAGTGCAG,10400 fluorescence intensity (a.u.)
19,GTAGATATATATTGTTCCACTTATCGTTTATTGCGCTCAACGGAGTCACCTAGTGCAG,8560 fluorescence intensity (a.u.)
20,CCTCCTCTCTCTCGCTCGCTCCGCTCTTCTTGACAAGGAACGGAGTCACCTAGTGCAG,8460 fluorescence intensity (a.u.)
21,ATCAGTCGTCTAGTTCGTCGGCTGTCATTTTTAAATTCCTCGGAGTCACCTAGTGCAG,8400 fluorescence intensity (a.u.)

row,Sequence,binding signal
1,ATGGGGTGTTTTTTTTTTCGCTATATTCTCTTAGAACTGTCGGAGTCACCTAGTGCAG,18000 fluorescence intensity (a.u.)
2,ATCATTTCTTTGATTTTGGTCTTGCTTGAGCTTTTGTTTCCGGAGTCACCTAGTGCAG,10100 fluorescence intensity (a.u.)
3,GGCCTCAACCAGGCCAGGCCCATTTTAACCGCGTCTCTCCCGGAGTCACCTAGTGCAG,11500 fluorescence intensity (a.u.)
4,CCCAGCCCAACAAGCATCCCACTAGATCATCACGGCCTCTCGGAGTCACCTAGTGCAG,10700 fluorescence intensity (a.u.)
5,TCGCCATCTTTGACCGCGCAAACGCCGTCGTTCGCGAACTCGGAGTCACCTAGTGCAG,9320 fluorescence intensity (a.u.)
6,TTTTTCATGTTTTTGTTCCTTTTTGAGTGCTTTTATTTCTCGGAGTCACCTAGTGCAG,12900 fluorescence intensity (a.u.)
7,GCGGGTTCCCATAGGCGGTGGTGTCACTTTCTCCATGTTTCGGAGTCACCTAGTGCAG,8040 fluorescence intensity (a.u.)
8,AATTCTGTTAGCTTCTCTGAACTTTGGTCTTTATTTTGAACGGAGTCACCTAGTGCAG,10200 fluorescence intensity (a.u.)
9,AAACCGTCTTAGGACCTTATGTGCACTGGATTTCTAAGTTCGGAGTCACCTAGTGCAG,8080 fluorescence intensity (a.u.)
10,TGAGTGTTCTCTGCCTGCCATTTTGATTATTCATTTTATGCGGAGTCACCTAGTGCAG,8900 fluorescence intensity (a.u.)
11,GTGACACTGACATGTGGGTTCCACGGGATTTATTATTTTTCGGAGTCACCTAGTGCAG,8370 fluorescence intensity (a.u.)
12,CGTCATTACATGGGCCTGGCTGCTCTGGATGTCTTCTTTTCGGAGTCACCTAGTGCAG,8150 fluorescence intensity (a.u.)
13,GGGTTTTCCAGCTTCTGGCTTCTAGTTCATTTTCTGGATTCGGAGTCACCTAGTGCAG,8440 fluorescence intensity (a.u.)
14,GACTTACTTTATTATCCAAAGTACTTTACGCACAACTTTTCGGAGTCACCTAGTGCAG,8130 fluorescence intensity (a.u.)
15,CGGCTTGATGCGCGCTCCCTCCGATTTTTCACCTTTGTCCCGGAGTCACCTAGTGCAG,12400 fluorescence intensity (a.u.)
16,ACCTTAACTCTCTCCTTGCTTCCCAAACATGGTTAAATTACGGAGTCACCTAGTGCAG,10900 fluorescence intensity (a.u.)
17,TTTCCCTTCTGTTTTTTTTCGGTTTTTTAATGTATGAATACGGAGTCACCTAGTGCAG,8820 fluorescence intensity (a.u.)
18,ATTCTTCCATGCTTCCGGCGGGACCGCGTCGCGCGCACGCCGGAGTCACCTAGTGCAG,8630 fluorescence intensity (a.u.)
19,GACTCTGGACTCTTGCGATTCGTCTCCAGCCGCGGCCATGCGGAGTCACCTAGTGCAG,8160 fluorescence intensity (a.u.)
20,TGCATACAACTGACTTATAATCTGCTATTGTACTCGCTGCCGGAGTCACCTAGTGCAG,8300 fluorescence intensity (a.u.)
21,GTTGTCGCTCATTTTCCTCCCGTACGTTCCAGCTAGCTCACGGAGTCACCTAGTGCAG,9010 fluorescence intensity (a.u.)

# Taken from the entries so far for reference:
row,Sequence,binding signal
18,CCGCTGAATCCATCTCCACCTCCTCACCTATTCGCTAACGCGGAGTCACCTAGTGCAG,10400 fluorescence intensity (a.u.)
19,GTAGATATATATTGTTCCACTTATCGTTTATTGCGCTCAACGGAGTCACCTAGTGCAG,8560 fluorescence intensity (a.u.)
20,CCTCCTCTCTCTCGCTCGCTCCGCTCTTCTTGACAAGGAACGGAGTCACCTAGTGCAG,8460 fluorescence intensity (a.u.)
21,ATCAGTCGTCTAGTTCGTCGGCTGTCATTTTTAAATTCCTCGGAGTCACCTAGTGCAG,8400 fluorescence intensity (a.u.)

# A second format for some results above.
row | Sequence | binding signal
18 | CCGCTGAATCCATCTCCACCTCCTCACCTATTCGCTAACGCGGAGTCACCTAGTGCAG | 10400 fluorescence intensity (a.u.)
19 | GTAGATATATATTGTTCCACTTATCGTTTATTGCGCTCAACGGAGTCACCTAGTGCAG | 8560 fluorescence intensity (a.u.)

# (cont.)

row,Sequence,binding signal
1,CTCGCGCCCCATCGATCAACCTCTCTCCCGCCAACGCCCACGGAGTCACCTAGTGCAG,12600 fluorescence intensity (a.u.)
2,CGATGCTCTCCAGCTCTCCCTTGTTCGTGATGGCCGCTCCCGGAGTCACCTAGTGCAG,8130 fluorescence intensity (a.u.)
3,TTCCTGTGAGATGAACACGTTTTTGTTTTGTTTTGTTTTTCGGAGTCACCTAGTGCAG,10500 fluorescence intensity (a.u.)
4,GGCTGGTCTGGTGCATCGCCCACCGATTTCATCGTGCCGTCGGAGTCACCTAGTGCAG,8920 fluorescence intensity (a.u.)
5,TCGCAGCAGCTGTTTTACCGGCTAGTTTTTTGCACACATCCGGAGTCACCTAGTGCAG,8600 fluorescence intensity (a.u.)
6,AGCCTAGTTTCTTCCTTTGTCCACGTGTAATATTTGAAGTCGGAGTCACCTAGTGCAG,9940 fluorescence intensity (a.u.)
7,TATATATATATATATATATATATAAAATAAGAAAATCTGACGGAGTCACCTAGTGCAG,9950 fluorescence intensity (a.u.)
8,TCCCACAGTTTCACAATATAAATTATTCTAGTATTTCCCACGGAGTCACCTAGTGCAG,8250 fluorescence intensity (a.u.)
9,CAAACAGTATCCGGTTTGTATATTAGCACTTCACCTGCTTCGGAGTCACCTAGTGCAG,8060 fluorescence intensity (a.u.)
10,TAGTCTTTACAAGTTCTTTTGGGCCTATAACTGTAGTTCCCGGAGTCACCTAGTGCAG,8910 fluorescence intensity (a.u.)
11,GCACGTGGTTTTAAGGTGGGTATTTTGGTGCACTTTTTTCCGGAGTCACCTAGTGCAG,11000 fluorescence intensity (a.u.)
12,TGCGTTTTTTTCGCGTAGCTGTTCACATGGTTACAACTTACGGAGTCACCTAGTGCAG,9640 fluorescence intensity (a.u.)
13,TGGGGCGGCTGGTAGTTCCAGGCCGGGAGACTAATTCTGACGGAGTCACCTAGTGCAG,8760 fluorescence intensity (a.u.)
14,GTGTGTTATTTTCTTCCACTCTTTAGTTTTCACTTTTTGACGGAGTCACCTAGTGCAG,9240 fluorescence intensity (a.u.)
15,CTCTCGCCCTTCGCGCTGACCTCCTCACAGCTGCTCTCGCCGGAGTCACCTAGTGCAG,8440 fluorescence intensity (a.u.)
16,GGAGGAGGAGGAGGGAGAGGGTGGTGTAGTGGGAGCGGCCCGGAGTCACCTAGTGCAG,8170 fluorescence intensity (a.u.)
17,GCCGCTCTCACTTCAATCCTAACCAAAGTGCACACAAGATCGGAGTCACCTAGTGCAG,9450 fluorescence intensity (a.u.)
18,TCGGTCTCTCACTCTCACGGTCTCACCTCCTCCTCCTCCTCGGAGTCACCTAGTGCAG,13400 fluorescence intensity (a.u.)
19,TTCTTGCTGATGCCTGTGTTTTGGGATGAGATTTTTTTTTCGGAGTCACCTAGTGCAG,10000 fluorescence intensity (a.u.)
20,GCAAACACTCTCTCTATAGATATGTCACTAGCACCATATGCGGAGTCACCTAGTGCAG,8310 fluorescence intensity (a.u.)
21,TTCGCATCGGCGTTGCTTCCAACGAGAGGGAGGGAGGGAGCGGAGTCACCTAGTGCAG,9600 fluorescence intensity (a.u.)
